# Reference: the supplement of paper PMC4604168 (melanoma cell lines)
# This is one part of the list. Many values rest on one well or one pass, so single values are uncertain.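 The apoptosis fraction was the count of cleaved-PARP antibody-stained nuclei relative to all DNA-stained nuclei, imaged in 1,536-well plates. Screening doses were set so most cells survived, and baseline and induced cleaved-PARP levels vary greatly across cell lines.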
# Test system: G361
# Assay: cleaved PARP positive nuclei fraction relative to DMSO control; melanoma cells; higher = more apoptosis
# Conditions: library dose: low library concentration; 72 h
row,Compound,cleaved PARP positive nuclei fraction
1,"CC(=O)O[C@@]12CO[C@@H]1C[C@H](O)[C@@]1(C)C(=O)[C@H](O)C3=C(C)[C@@H](OC(=O)[C@H](O)[C@@H](NC(=O)OC(C)(C)C)c4ccccc4)C[C@@](O)([C@@H](OC(=O)c4ccccc4)[C@H]21)C3(C)C [Docetaxel] + Cn1c(Nc2ccc(C(F)(F)F)cc2)nc2cc(Oc3ccnc(-c4ncc(C(F)(F)F)[nH]4)c3)ccc21 [CHIR265] (first compound 0.0001 µM, partner dose 0.08 µM)",600%
2,"Cn1sc(=O)n(Cc2ccccc2)c1=O + CC(C)C[C@H](NC(=O)[C@H](Cc1ccccc1)NC(=O)c1cnccn1)B(O)O [Bortezomib] (first compound 0.4 µM, partner dose 0.001 µM)",178%
3,"COc1ccc(C2=N[C@@H](c3ccc(Cl)cc3)[C@@H](c3ccc(Cl)cc3)N2C(=O)N2CCNC(=O)C2)c(OC(C)C)c1 [Nutlin-3] + C=CCNC1=C2C[C@@H](C)C[C@H](OC)[C@H](O)[C@@H](C)/C=C(\C)[C@H](OC(N)=O)[C@@H](OC)/C=C\C=C(/C)C(=O)NC(=CC1=O)C2=O [Tanespimycin] (first compound 0.1 µM, partner dose 0.002 µM)",122%
4,"C[C@@H](N)c1ccc(C(=O)Nc2ccnc3[nH]ccc23)cc1 + CC(C)C[C@H](NC(=O)[C@H](Cc1ccccc1)NC(=O)c1cnccn1)B(O)O [Bortezomib] (first compound 0.4 µM, partner dose 0.001 µM)",879%
